In the supplement of paper PMC10849652:
This is one part of the list.

By UniProt entry, the sequences of proteins in these tests, tags left out. Where a name states a change or a piece, a line headed by the entry shows the natural chain unless it says otherwise.
UniProt O60443: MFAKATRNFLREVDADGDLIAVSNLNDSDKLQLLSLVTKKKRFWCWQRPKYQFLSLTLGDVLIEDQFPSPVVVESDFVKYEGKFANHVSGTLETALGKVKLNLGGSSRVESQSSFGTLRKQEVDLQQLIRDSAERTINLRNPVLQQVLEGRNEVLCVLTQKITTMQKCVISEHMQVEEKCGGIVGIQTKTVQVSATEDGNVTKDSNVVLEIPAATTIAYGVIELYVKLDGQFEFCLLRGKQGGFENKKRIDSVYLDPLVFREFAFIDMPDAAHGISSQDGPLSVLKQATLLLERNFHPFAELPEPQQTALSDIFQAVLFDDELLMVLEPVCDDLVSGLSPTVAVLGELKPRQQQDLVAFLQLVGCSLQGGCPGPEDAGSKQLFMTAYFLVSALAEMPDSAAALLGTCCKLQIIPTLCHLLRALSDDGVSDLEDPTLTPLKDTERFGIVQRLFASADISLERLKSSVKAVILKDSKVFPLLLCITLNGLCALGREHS
UniProt Q9H4G4: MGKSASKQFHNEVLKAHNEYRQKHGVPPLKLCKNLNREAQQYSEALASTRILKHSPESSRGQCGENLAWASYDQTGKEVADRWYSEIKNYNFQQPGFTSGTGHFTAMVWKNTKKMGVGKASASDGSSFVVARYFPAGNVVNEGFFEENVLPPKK
UniProt Q86V85: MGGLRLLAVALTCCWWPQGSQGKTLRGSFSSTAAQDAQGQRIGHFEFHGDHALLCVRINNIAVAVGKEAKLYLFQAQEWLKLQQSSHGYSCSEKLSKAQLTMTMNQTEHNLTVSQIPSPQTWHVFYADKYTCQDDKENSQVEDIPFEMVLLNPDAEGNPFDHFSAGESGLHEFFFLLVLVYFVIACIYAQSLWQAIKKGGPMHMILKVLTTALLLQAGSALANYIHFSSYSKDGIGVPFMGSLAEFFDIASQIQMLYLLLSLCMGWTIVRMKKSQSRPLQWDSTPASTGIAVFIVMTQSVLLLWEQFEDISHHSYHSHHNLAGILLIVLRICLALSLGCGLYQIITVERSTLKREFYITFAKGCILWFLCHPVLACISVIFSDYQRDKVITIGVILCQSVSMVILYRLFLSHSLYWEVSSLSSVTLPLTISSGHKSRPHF
UniProt Q4ZG55: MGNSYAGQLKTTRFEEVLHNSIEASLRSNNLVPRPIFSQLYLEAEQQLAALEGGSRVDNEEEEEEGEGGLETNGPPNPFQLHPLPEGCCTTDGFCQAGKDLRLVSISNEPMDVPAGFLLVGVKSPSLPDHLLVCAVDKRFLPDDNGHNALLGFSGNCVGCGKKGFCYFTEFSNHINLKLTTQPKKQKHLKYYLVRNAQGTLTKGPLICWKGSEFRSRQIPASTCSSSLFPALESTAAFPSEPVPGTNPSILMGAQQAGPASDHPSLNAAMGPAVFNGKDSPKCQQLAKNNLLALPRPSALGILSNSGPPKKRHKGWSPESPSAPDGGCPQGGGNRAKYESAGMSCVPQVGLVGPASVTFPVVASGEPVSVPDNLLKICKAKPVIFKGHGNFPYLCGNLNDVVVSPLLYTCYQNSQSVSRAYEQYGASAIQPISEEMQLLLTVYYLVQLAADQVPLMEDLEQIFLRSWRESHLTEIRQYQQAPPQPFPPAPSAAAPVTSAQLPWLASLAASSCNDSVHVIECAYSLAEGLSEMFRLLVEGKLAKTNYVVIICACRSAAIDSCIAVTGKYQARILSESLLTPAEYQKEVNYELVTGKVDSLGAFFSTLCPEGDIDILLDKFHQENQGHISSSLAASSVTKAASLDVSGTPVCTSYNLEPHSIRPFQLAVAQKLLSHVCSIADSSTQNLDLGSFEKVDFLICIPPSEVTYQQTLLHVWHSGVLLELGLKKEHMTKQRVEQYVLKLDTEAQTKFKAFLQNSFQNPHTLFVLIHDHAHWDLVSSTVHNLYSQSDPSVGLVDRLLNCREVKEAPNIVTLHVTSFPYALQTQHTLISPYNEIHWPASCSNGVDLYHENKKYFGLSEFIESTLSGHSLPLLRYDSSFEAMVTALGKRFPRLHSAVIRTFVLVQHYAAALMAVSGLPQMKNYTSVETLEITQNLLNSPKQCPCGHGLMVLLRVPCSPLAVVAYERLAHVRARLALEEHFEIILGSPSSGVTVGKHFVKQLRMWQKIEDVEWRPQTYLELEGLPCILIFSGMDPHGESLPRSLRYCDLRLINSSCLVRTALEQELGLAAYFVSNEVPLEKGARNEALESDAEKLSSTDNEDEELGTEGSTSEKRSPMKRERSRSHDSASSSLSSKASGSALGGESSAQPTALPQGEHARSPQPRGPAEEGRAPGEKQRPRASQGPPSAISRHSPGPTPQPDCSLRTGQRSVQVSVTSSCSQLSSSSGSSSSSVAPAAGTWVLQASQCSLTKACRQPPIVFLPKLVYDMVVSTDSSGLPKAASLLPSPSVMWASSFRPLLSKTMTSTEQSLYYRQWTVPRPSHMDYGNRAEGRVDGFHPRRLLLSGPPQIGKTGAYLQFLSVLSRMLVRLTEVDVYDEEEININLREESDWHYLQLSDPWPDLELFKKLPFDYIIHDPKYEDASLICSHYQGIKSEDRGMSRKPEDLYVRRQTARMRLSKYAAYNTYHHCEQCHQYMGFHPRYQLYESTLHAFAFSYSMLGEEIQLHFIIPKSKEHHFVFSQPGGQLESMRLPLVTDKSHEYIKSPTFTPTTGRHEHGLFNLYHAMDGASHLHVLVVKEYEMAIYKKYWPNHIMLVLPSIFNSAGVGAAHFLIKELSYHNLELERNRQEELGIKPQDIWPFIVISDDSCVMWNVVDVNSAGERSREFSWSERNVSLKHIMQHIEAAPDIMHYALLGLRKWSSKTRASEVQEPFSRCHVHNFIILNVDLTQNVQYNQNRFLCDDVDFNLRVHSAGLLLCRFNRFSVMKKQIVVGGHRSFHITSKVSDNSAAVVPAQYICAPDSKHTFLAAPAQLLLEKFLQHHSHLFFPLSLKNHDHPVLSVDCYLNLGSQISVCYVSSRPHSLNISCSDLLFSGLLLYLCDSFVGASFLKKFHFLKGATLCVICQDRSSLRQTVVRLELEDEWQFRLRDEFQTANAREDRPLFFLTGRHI
UniProt Q14687: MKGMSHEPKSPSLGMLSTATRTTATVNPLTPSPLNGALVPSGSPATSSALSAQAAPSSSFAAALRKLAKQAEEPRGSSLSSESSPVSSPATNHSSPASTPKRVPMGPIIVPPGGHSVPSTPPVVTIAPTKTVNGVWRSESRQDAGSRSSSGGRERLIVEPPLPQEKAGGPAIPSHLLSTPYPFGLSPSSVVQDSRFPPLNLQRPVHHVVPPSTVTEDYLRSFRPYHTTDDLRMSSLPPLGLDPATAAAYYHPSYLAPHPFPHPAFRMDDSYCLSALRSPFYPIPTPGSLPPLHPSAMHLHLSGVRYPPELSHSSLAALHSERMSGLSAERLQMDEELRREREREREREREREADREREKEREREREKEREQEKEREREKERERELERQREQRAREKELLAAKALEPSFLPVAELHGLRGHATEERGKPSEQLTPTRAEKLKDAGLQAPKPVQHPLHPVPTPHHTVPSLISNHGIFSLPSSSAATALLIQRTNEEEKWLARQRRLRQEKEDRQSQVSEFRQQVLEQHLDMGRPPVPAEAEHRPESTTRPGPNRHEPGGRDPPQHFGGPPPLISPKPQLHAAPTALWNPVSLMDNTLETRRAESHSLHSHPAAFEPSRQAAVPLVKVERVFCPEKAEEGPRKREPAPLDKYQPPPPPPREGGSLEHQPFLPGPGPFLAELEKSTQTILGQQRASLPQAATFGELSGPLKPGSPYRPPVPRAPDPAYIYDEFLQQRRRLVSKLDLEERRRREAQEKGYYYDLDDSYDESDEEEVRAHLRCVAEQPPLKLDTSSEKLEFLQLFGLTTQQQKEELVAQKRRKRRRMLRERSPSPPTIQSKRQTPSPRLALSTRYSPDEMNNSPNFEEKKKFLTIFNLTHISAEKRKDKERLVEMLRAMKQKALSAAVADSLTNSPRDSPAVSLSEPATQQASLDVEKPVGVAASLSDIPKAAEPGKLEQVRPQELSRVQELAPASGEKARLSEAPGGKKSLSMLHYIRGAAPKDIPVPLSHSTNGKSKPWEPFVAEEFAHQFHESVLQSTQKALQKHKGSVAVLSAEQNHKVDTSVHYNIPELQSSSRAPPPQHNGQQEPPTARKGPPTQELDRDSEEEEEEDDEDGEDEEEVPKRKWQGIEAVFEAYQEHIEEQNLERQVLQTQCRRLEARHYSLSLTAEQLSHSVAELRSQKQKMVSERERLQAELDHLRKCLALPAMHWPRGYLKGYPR
UniProt Q9UBI6: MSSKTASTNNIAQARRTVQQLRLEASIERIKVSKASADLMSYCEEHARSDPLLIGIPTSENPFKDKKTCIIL
UniProt Q96CP6, whole entry, looked up: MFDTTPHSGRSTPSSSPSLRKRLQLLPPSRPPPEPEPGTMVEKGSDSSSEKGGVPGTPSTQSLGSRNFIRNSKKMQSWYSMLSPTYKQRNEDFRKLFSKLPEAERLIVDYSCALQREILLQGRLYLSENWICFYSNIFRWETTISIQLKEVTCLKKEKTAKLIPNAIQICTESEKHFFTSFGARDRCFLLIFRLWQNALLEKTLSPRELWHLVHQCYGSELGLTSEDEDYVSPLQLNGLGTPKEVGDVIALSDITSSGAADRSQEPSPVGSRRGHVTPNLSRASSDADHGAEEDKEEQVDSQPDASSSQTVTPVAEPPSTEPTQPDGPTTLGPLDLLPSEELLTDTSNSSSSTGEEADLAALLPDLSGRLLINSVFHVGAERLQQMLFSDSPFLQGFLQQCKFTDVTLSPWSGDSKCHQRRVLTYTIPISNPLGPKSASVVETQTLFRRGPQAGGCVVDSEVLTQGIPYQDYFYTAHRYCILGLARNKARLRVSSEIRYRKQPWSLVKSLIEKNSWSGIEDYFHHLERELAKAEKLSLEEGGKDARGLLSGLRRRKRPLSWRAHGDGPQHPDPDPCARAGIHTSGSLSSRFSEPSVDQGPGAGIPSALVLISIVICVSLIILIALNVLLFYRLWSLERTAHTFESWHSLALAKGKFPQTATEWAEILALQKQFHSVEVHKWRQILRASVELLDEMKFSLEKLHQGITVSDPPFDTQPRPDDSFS
UniProt Q14956: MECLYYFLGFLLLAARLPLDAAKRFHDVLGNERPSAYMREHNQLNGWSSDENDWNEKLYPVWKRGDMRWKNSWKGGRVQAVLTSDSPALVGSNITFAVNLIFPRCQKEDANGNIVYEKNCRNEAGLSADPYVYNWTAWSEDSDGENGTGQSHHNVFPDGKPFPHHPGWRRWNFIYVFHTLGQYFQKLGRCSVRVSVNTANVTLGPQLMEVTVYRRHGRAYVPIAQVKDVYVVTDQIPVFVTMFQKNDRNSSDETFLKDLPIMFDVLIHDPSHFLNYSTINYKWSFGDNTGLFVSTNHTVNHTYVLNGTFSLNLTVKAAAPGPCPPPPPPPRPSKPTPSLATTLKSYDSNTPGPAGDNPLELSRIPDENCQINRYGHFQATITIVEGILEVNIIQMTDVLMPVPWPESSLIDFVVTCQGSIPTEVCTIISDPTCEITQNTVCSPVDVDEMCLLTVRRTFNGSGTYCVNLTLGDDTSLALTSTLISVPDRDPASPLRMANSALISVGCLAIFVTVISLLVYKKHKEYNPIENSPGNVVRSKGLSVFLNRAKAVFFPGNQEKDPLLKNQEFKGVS
UniProt Q9HCL2: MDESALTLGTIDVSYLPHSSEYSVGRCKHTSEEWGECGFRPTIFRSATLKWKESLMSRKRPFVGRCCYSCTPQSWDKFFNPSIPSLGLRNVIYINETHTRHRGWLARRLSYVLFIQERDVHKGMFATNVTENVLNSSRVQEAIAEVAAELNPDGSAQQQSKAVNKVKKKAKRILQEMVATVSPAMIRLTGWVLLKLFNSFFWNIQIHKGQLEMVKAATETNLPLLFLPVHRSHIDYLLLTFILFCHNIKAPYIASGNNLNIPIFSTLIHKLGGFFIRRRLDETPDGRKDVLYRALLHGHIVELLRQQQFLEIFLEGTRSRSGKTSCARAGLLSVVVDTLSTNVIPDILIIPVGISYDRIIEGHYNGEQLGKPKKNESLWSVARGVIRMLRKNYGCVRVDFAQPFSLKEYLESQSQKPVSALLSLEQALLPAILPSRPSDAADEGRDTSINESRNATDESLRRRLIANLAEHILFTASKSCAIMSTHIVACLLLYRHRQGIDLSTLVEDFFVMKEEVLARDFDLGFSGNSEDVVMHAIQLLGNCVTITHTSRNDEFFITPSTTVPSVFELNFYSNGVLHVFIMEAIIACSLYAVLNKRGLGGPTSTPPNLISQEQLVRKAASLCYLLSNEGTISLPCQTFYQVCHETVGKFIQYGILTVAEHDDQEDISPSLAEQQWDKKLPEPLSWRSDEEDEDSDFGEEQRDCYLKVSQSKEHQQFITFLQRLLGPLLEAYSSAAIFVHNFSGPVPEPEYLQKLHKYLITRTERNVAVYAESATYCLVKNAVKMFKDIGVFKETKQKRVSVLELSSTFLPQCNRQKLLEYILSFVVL

What was measured:
Test in all cases: log2 fold change, soluble protein after heating vs DMSO (PISA); higher = thermal stabilisation; K562 cells, 10 uM, 30 min; active = over 0.2 and 3.5 SD of the protein, either way, in both replicates (recomputed)
[1] = compound: CC[C@@H]1C(=O)N(C)c2cnc(Nc3ccc(C(=O)NC4CCN(C)CC4)cc3OC)nc2N1C1CCCC1
How it was run: (§1)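 Aliquots of K562 cells (2×10^6 cells/mL) treated with 10 μM compound for 30 min were heated for 3 min over 48°C-58°C. After pooling and extraction in PBS with 0.5% NP-40 at 4°C, soluble protein from a 21,000xg, 90 min spin was quantified by TMTpro 16plex LC-MS/MS with channel sums equalised. Thermal stability is expressed against control samples, from duplicates, as a log2 fold change.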

[2] = compound: CC[C@H](C)N1C=C(C2=C(C=C(C=C21)C3=CN=C(C=C3)N4CCNCC4)C(=O)NCC5=C(C=C(NC5=O)C)C)C
How it was run: as §1

[3] = compound: CCn1cc(-c2ccnc3[nH]c(-c4cccc(CN(C)C)c4)cc23)c(-c2ccc(NC(=O)N(C)C)cc2)n1
How it was run: as §1

[4] = compound: CN1C2=C(C3=C1C(=O)N(N=C3)CC4=CC(=CC=C4)N)SC(=C2)S(=O)C
How it was run: as §1

[5] = compound: CN1CCC(CNc2ccc3ncc(-c4cccc(OC(F)(F)F)c4)n3n2)CC1
How it was run: as §1

epoxomicin = compound: CC[C@H](C)[C@@H](C(=O)N[C@@H]([C@@H](C)O)C(=O)N[C@@H](CC(C)C)C(=O)[C@]1(CO1)C)NC(=O)[C@H]([C@@H](C)CC)N(C)C(=O)C [epoxomicin]
How it was run: as §1

[6] = compound: CN(C)CC(=O)Nc1ccc2[nH]c(=O)c3ccccc3c2c1
How it was run: as §1

rosiglitazone = compound: CN(CCOC1=CC=C(C=C1)C[C@H]2C(=O)NC(=O)S2)C3=CC=CC=N3 (racemic) [rosiglitazone]
How it was run: as §1

volasertib = compound: CC[C@@H]1C(=O)N(C)c2cnc(Nc3ccc(C(=O)N[C@H]4CC[C@H](N5CCN(CC6CC6)CC5)CC4)cc3OC)nc2N1C(C)C [volasertib]
How it was run: as §1

[7] = compound: CCn1c(C(=O)N(C2CC2)C2CC2)cc2c3c(ncn3C)c(Nc3cc(C)n(C)n3)nc21
How it was run: as §1

Measured: log2 fold change

GLT8D1 (UniProt Q68CQ7)
inactive: [1] -0.201 | [2] 0.001 | [3] 0.106 | [4] -0.119 | [5] 0.106

GOLIM4 (UniProt F8W785)
inactive: [1] -0.208 | [2] 0.028 | epoxomicin 0.027 | [3] 0.008 | [6] 0.002 | rosiglitazone 0.017 | [4] -0.023 | [5] 0.034

GOLPH3L (UniProt Q9H4A5)
inactive: epoxomicin -0.362 | [3] -0.108 | [6] 0.01 | [5] 0.308

GOLGA8R (UniProt I6L899)
inactive: [1] -0.036 | volasertib -0.4 | [3] -0.182 | [6] 0.191 | [4] -0.003 | [5] -0.033

GOLGA6B (UniProt A6NDN3)
inactive: epoxomicin -0.061 | [3] -0.185 | [6] 0.327 | [5] 0.067
active: [2] -0.579

GSDME (UniProt O60443)
inactive: [1] -0.137 | epoxomicin -0.174 | [7] -0.079 | [4] -0.341

GPT2 (UniProt Q8TD30)
inactive: volasertib -0.009 | [3] -0.169 | [6] 0.124 | [4] -0.278 | [5] -0.06

GLIPR2 (UniProt Q9H4G4)
inactive: [1] -0.047 | volasertib 0.163 | epoxomicin -0.088 | [3] -0.032 | [6] -0.117 | [4] -0.084 | [5] -0.239

GRN (UniProt P28799)
inactive: volasertib 0.179 | [2] 0.05 | epoxomicin -0.034 | [7] -0.041 | [3] -0.154 | [6] -0.097 | rosiglitazone -0.002 | [4] 0.054 | [5] 0.14

GPR180 (UniProt Q86V85)
inactive: volasertib -0.124 | epoxomicin -0.09 | [3] -0.054 | [6] 0.046 | rosiglitazone -0.354 | [4] 0.117 | [5] -0.333

GLE1 (UniProt Q53GS7)
inactive: [4] 0.459

GMIP (UniProt Q9P107)
inactive: [2] 0.172 | epoxomicin 0.066 | [7] -0.084 | rosiglitazone -0.057 | [4] 0.206

GREB1 (UniProt Q4ZG55)
inactive: epoxomicin -0.081 | [6] -0.095

GIGYF1 (UniProt O75420)
inactive: volasertib -0.057 | epoxomicin 0.009 | [3] -0.106 | [5] -0.141

GOLGA1 (UniProt Q92805)
inactive: volasertib 0.044 | [7] -0.011 | [3] 0.077 | [6] 0.218 | [4] 0.116 | [5] 0.012

GNL3 (UniProt Q9BVP2)
inactive: [1] 0.018 | [2] -0.197 | epoxomicin -0.06 | [3] 0.118 | [6] 0.002 | [4] -0.103 | [5] 0.081

Copied from the results shown (9 entries):
GPT2 (UniProt Q8TD30)
inactive: volasertib -0.009 | [3] -0.169 | [6] 0.124 | [4] -0.278 | [5] -0.06

GLIPR2 (UniProt Q9H4G4)
inactive: [1] -0.047 | volasertib 0.163 | epoxomicin -0.088 | [3] -0.032 | [6] -0.117 | [4] -0.084 | [5] -0.239

GRN (UniProt P28799)
inactive: volasertib 0.179 | [2] 0.05 | epoxomicin -0.034 | [7] -0.041 | [3] -0.154 | [6] -0.097 | rosiglitazone -0.002 | [4] 0.054 | [5] 0.14

GPR180 (UniProt Q86V85)
inactive: volasertib -0.124 | epoxomicin -0.09 | [3] -0.054 | [6] 0.046 | rosiglitazone -0.354 | [4] 0.117 | [5] -0.333

GLE1 (UniProt Q53GS7)
inactive: [4] 0.459

GMIP (UniProt Q9P107)
inactive: [2] 0.172 | epoxomicin 0.066 | [7] -0.084 | rosiglitazone -0.057 | [4] 0.206

GREB1 (UniProt Q4ZG55)
inactive: epoxomicin -0.081 | [6] -0.095

GIGYF1 (UniProt O75420)
inactive: volasertib -0.057 | epoxomicin 0.009 | [3] -0.106 | [5] -0.141

GOLGA1 (UniProt Q92805)
inactive: volasertib 0.044 | [7] -0.011 | [3] 0.077 | [6] 0.218 | [4] 0.116 | [5] 0.012

Going on with the list:

GOSR1 (UniProt E9PCW1)
inactive: [1] -0.171 | volasertib -0.019 | [7] -0.146 | rosiglitazone -0.012 | [4] 0.149

GSE1 (UniProt Q14687)
inactive: [2] -0.003 | [6] -0.117 | [4] -0.004

GNG12 (UniProt Q9UBI6)
inactive: [3] -0.127 | [5] 0.226

GK5 (UniProt Q6ZS86)
inactive: volasertib -0.138 | epoxomicin 0.032 | [3] -0.169 | [6] -0.164 | rosiglitazone 0.054 | [4] 0.025 | [5] -0.149

GJA1 (UniProt P17302)
inactive: [3] -0.096 | rosiglitazone 0.063 | [5] 0.763

GRAMD1A (UniProt Q96CP6)
inactive: epoxomicin -0.139 | rosiglitazone 0.231

GPS1 (UniProt A8K070)
inactive: [1] 0.098 | [2] 0.001 | [7] -0.037 | [3] -0.127 | rosiglitazone 0.058 | [5] 0.015

GIT2 (UniProt Q14161)
inactive: volasertib -0.525 | [2] -0.346 | epoxomicin -0.241 | [7] -0.146 | rosiglitazone 0.192 | [4] -0.101

GPC4 (UniProt O75487)
inactive: [3] -0.288 | [5] -0.144

GPNMB (UniProt Q14956)
inactive: [1] 0.206 | epoxomicin -0.191

GPATCH2L (UniProt Q9NWQ4)
inactive: [7] -0.135

GNL3L (UniProt Q9NVN8)
inactive: [3] 0.001 | [5] -0.04

GIT1 isoform 3 (UniProt Q9Y2X7)
inactive: [1] -0.27 | volasertib -0.241 | epoxomicin 0.04 | [4] 0.102

GOPC (UniProt Q9HD26)
inactive: volasertib -0.015 | [2] 0.022 | epoxomicin -0.053 | [3] 0.149 | [6] 0.056 | [4] 0.153 | [5] 0.485

GP6 isoform 3 (UniProt Q9HCN6)
inactive: [7] 0.047 | rosiglitazone -0.056

GPAA1 (UniProt E9PLG8)
inactive: [1] -0.056 | [2] -0.025 | [3] 0.075 | rosiglitazone 0.231 | [4] -0.101 | [5] 0.004

GPAM (UniProt Q9HCL2)
inactive: volasertib -0.006 | [2] 0.043 | epoxomicin -0.021 | [7] -0.142 | [3] 0.23 | [5] -0.208

GLCE (UniProt O94923)
inactive: volasertib -0.179 | [2] 0.015 | [7] 0.009 | rosiglitazone -0.04

GPD1 (UniProt P21695)
inactive: volasertib -0.161 | [2] 0 | epoxomicin -0.205 | [3] -0.011 | [6] -0.045 | [4] -0.126 | [5] -0.183

GRK6 isoform 2 (UniProt P43250)
inactive: [6] -0.021 | [4] 0.143

GNPTG (UniProt Q9UJJ9)
inactive: [2] 0.055 | epoxomicin -0.073 | [7] -0.013 | [3] 0.057 | rosiglitazone -0.021 | [4] 0.01 | [5] 0.124
